Test results from PubChem BioAssay AID493014 (National Center for Advancing Translational Sciences (NCATS), 2011).
The other results are listed elsewhere or left out. Shown are side measurements of this screen, not its main read-out; they come without a call. Most of these compounds were active or inconclusive in the main read-out, so they are no random draw. Words in brackets tell the shape of the fitted curve; partial curves, single points and poor fits give uncertain potencies.

Experiment: qHTS Assay to Find Inhibitors of Chronic Active B-Cell Receptor Signaling
Settings: ABC-DLBCL IkBa-CBG/CBR reporter, luminescence ratio (green luciferase fused to IkBa over red control in TMD8 lymphoma cells), 4 h
How it was run: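 Cell line TMD8 (human ABC DLBCL), stably expressing tet-inducible CBG68-IkBa fusion and CBR; IMDM/0.5% FBS; cpd up to 46 uM; dox induction, 4 h, 37C/5% CO2; dual luminescence; green/red ratio; MG132 control.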

[1] = measured here: CBR red luminescence, cell number
[2] = measured here: IkBa-CBG green luminescence

Compound | AC50 [1] | AC50 [2]
Cc1ccc(NC(=O)c2ccc(Cl)c(NC(=O)c3cccs3)c2)cc1 | 35.5 µM [falling, single point] | 
COc1ccc(/C=C/C(=O)O/N=C(\N)c2ccccn2)cc1OC | 23.1 µM [falling, single point] | 
Cc1ccc(/C=C2\OC(=O)c3ccccc32)cc1 | 5.62 µM [rising, full curve, poor fit] | 
COc1ccccc1C1c2ccc3ccccc3c2Oc2ncn(CCN(C)C)c(=N)c21 (configuration not stated) |  | 35.5 µM [falling, single point]
N#C/C(=C\c1c(Oc2ccc(Cl)cc2)nc2ccccn2c1=O)C(=O)NC1CCS(=O)(=O)C1 (configuration not stated) | 35.5 µM [falling, single point] | 
Cc1ccc2oc(-c3ccc(NC(=O)CC(C)C)cc3)nc2c1 | 0.501 µM [rising, full curve, poor fit] | 
COc1cc2c3c(c1)C1(C(=O)N3C(C)(C)C=C2C)C(C#N)=C(N)Oc2cc(C)oc(=O)c21 (configuration not stated) | 5.01 µM [rising, partial curve, poor fit] | 
CCN(CC)Cc1c(C(=O)N/N=C/c2ccco2)nnn1-c1nonc1N | 22.4 µM [falling, single point] | 
CC(=O)Nc1nc(C)c(-c2nc3ccc([N+](=O)[O-])cc3[nH]2)s1 | 14.1 µM [rising, partial curve] | 
Cc1csc(SCC(=O)Nc2ncc(Cl)c(C)c2Cl)n1 | 0.0891 µM [falling, full curve, poor fit] | 
c1ccc(OCc2nc(-c3ccncc3)no2)cc1 | 0.251 µM [rising, full curve, poor fit] | 
Cc1c(CCO)c(=O)[nH]n1C(=O)c1c(F)cccc1F |  | 3.66 µM [rising, partial curve, poor fit]
CN(C)S(=O)(=O)c1ccc(Cl)c(NC(=O)COC(=O)c2cc(-c3ccccc3)nc3ccccc23)c1 | 3.66 µM [falling, partial curve, poor fit] | 
Cc1nnc(N2C(=O)c3cccc4cccc(c34)C2=O)s1 | 1.46 µM [rising, partial curve, poor fit] | 
OC(CNCCc1ccc(C(F)(F)F)cc1)COC(c1ccccc1)c1ccccc1 (configuration not stated) | 22.4 µM [falling, single point] | 
Cc1cccc(CC2S/C(=N/N=C/c3ccco3)NC2=O)c1 (configuration not stated) | 14.1 µM [rising, single point] | 
COc1ccccc1N1CCN(C(=O)c2nn(-c3ccccc3OC)c(=O)c3ccccc23)CC1 | 29.1 µM [falling, partial curve, poor fit] | 

Not a retest: an excerpt of the list.
Compound | AC50 [1] | AC50 [2]
COc1ccccc1C1c2ccc3ccccc3c2Oc2ncn(CCN(C)C)c(=N)c21 (configuration not stated) |  | 35.5 µM [falling, single point]
N#C/C(=C\c1c(Oc2ccc(Cl)cc2)nc2ccccn2c1=O)C(=O)NC1CCS(=O)(=O)C1 (configuration not stated) | 35.5 µM [falling, single point] | 
